# Data: publication doi:10.1101/2025.02.03.636288
# Protein sequences, listed by entry. Tags and fused reporters are not part of them.
# UniProt P68400: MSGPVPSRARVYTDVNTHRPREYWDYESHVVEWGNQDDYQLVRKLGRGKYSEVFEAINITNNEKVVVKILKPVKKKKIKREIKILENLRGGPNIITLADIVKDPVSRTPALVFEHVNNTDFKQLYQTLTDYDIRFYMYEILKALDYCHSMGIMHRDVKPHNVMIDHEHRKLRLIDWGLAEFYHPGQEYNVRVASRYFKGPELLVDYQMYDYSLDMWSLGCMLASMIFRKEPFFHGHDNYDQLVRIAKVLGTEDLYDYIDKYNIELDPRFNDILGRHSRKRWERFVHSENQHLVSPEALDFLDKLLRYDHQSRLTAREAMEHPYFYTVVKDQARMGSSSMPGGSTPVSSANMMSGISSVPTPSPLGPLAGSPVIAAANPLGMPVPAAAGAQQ
# Results are given in words; binding and its absence hold for the method and conditions named. For part of these data: In cells and extracts the contact can be indirect. Some binding calls cover weakened binding; strength is not graded here. Tags and fused reporters may be left off the sequences shown.
# Experiments:
# 3xFLAG-CK2α = 3xFLAG-CK2α (UniProt P68400); assay: co-IP
# CSNK2α1-NanoLuc = CSNK2α1-NanoLuc (UniProt P68400); assay: FRET or BRET
# FLAG-CARD9 T231D (human) [1] = target: FLAG-CARD9 T231D (human) (UniProt Q9H257); assay: native gel or EMSA
# FLAG-CARD9 T231D (human) [2] = target: FLAG-CARD9 T231D (human) (UniProt Q9H257); assay: SDS-PAGE Western blot of oligomeric species
# FLAG-CARD9 T231E (human) = FLAG-CARD9 T231E (human) (UniProt Q9H257); assay: SDS-PAGE Western blot of oligomeric species
binder,measurement,setting,value
"FLAG-CARD9 (protein, UniProt Q9H257 1-536) MSDYENDDECWSVLEGFRVTLTSVIDPSRITPYLRQCKVLNPDDEEQVLSDPNLVIRKRKVGVLLDILQRTGHKGYVAFLESLELYYPQLYKKVTGKEPARVFSMIIDASGESGLTQLLMTEVMKLQKKVQDLTALLSSKDDFIKELRVKDSLLRKHQERVQRLKEECEAGSRELKRCKEENYDLAMRLAHQSEEKGAALMRNRDLQLEIDQLKHSLMKAEDDCKVERKHTLKLRHAMEQRPSQELLWELQQEKALLQARVQELEASVQEGKLDRSSPYIQVLEEDWRQALRDHQEQANTIFSLRKDLRQGEARRLRCMEEKEMFELQCLALRKDSKMYKDRIEAILLQMEEVAIERDQAIATREELHAQHARGLQEKDALRKQVRELGEKADELQLQVFQCEAQLLAVEGRLRRQQLETLVLSSDLEDGSPRRSQELSLPQDLEDTQLSDKGCLAGGGSPKQPFAALHQEQVLRNPHDAGLSSGEPPEKERRRLKESFENYRRKRALRKMQKGWRQGEEDRENTTGSDNTDTEGS",binding,3xFLAG-CK2α,binds
"HaloTag-CARD9 (protein, UniProt Q9H257 1-536, HaloTag NanoBRET 618 Ligand on the HaloTag) MSDYENDDECWSVLEGFRVTLTSVIDPSRITPYLRQCKVLNPDDEEQVLSDPNLVIRKRKVGVLLDILQRTGHKGYVAFLESLELYYPQLYKKVTGKEPARVFSMIIDASGESGLTQLLMTEVMKLQKKVQDLTALLSSKDDFIKELRVKDSLLRKHQERVQRLKEECEAGSRELKRCKEENYDLAMRLAHQSEEKGAALMRNRDLQLEIDQLKHSLMKAEDDCKVERKHTLKLRHAMEQRPSQELLWELQQEKALLQARVQELEASVQEGKLDRSSPYIQVLEEDWRQALRDHQEQANTIFSLRKDLRQGEARRLRCMEEKEMFELQCLALRKDSKMYKDRIEAILLQMEEVAIERDQAIATREELHAQHARGLQEKDALRKQVRELGEKADELQLQVFQCEAQLLAVEGRLRRQQLETLVLSSDLEDGSPRRSQELSLPQDLEDTQLSDKGCLAGGGSPKQPFAALHQEQVLRNPHDAGLSSGEPPEKERRRLKESFENYRRKRALRKMQKGWRQGEEDRENTTGSDNTDTEGS",binding,CSNK2α1-NanoLuc,binds
"HaloTag-CARD9_T231D (protein, UniProt Q9H257 1-536, HaloTag NanoBRET 618 Ligand on the HaloTag) MSDYENDDECWSVLEGFRVTLTSVIDPSRITPYLRQCKVLNPDDEEQVLSDPNLVIRKRKVGVLLDILQRTGHKGYVAFLESLELYYPQLYKKVTGKEPARVFSMIIDASGESGLTQLLMTEVMKLQKKVQDLTALLSSKDDFIKELRVKDSLLRKHQERVQRLKEECEAGSRELKRCKEENYDLAMRLAHQSEEKGAALMRNRDLQLEIDQLKHSLMKAEDDCKVERKHDLKLRHAMEQRPSQELLWELQQEKALLQARVQELEASVQEGKLDRSSPYIQVLEEDWRQALRDHQEQANTIFSLRKDLRQGEARRLRCMEEKEMFELQCLALRKDSKMYKDRIEAILLQMEEVAIERDQAIATREELHAQHARGLQEKDALRKQVRELGEKADELQLQVFQCEAQLLAVEGRLRRQQLETLVLSSDLEDGSPRRSQELSLPQDLEDTQLSDKGCLAGGGSPKQPFAALHQEQVLRNPHDAGLSSGEPPEKERRRLKESFENYRRKRALRKMQKGWRQGEEDRENTTGSDNTDTEGS",binding,CSNK2α1-NanoLuc,binds
"FLAG-CARD9 T231D (protein, UniProt Q9H257 1-536) MSDYENDDECWSVLEGFRVTLTSVIDPSRITPYLRQCKVLNPDDEEQVLSDPNLVIRKRKVGVLLDILQRTGHKGYVAFLESLELYYPQLYKKVTGKEPARVFSMIIDASGESGLTQLLMTEVMKLQKKVQDLTALLSSKDDFIKELRVKDSLLRKHQERVQRLKEECEAGSRELKRCKEENYDLAMRLAHQSEEKGAALMRNRDLQLEIDQLKHSLMKAEDDCKVERKHDLKLRHAMEQRPSQELLWELQQEKALLQARVQELEASVQEGKLDRSSPYIQVLEEDWRQALRDHQEQANTIFSLRKDLRQGEARRLRCMEEKEMFELQCLALRKDSKMYKDRIEAILLQMEEVAIERDQAIATREELHAQHARGLQEKDALRKQVRELGEKADELQLQVFQCEAQLLAVEGRLRRQQLETLVLSSDLEDGSPRRSQELSLPQDLEDTQLSDKGCLAGGGSPKQPFAALHQEQVLRNPHDAGLSSGEPPEKERRRLKESFENYRRKRALRKMQKGWRQGEEDRENTTGSDNTDTEGS",binding,FLAG-CARD9 T231D (human) [1],binds
same,binding,FLAG-CARD9 T231D (human) [2],binds
"FLAG-CARD9 T231E (protein, UniProt Q9H257 1-536) MSDYENDDECWSVLEGFRVTLTSVIDPSRITPYLRQCKVLNPDDEEQVLSDPNLVIRKRKVGVLLDILQRTGHKGYVAFLESLELYYPQLYKKVTGKEPARVFSMIIDASGESGLTQLLMTEVMKLQKKVQDLTALLSSKDDFIKELRVKDSLLRKHQERVQRLKEECEAGSRELKRCKEENYDLAMRLAHQSEEKGAALMRNRDLQLEIDQLKHSLMKAEDDCKVERKHELKLRHAMEQRPSQELLWELQQEKALLQARVQELEASVQEGKLDRSSPYIQVLEEDWRQALRDHQEQANTIFSLRKDLRQGEARRLRCMEEKEMFELQCLALRKDSKMYKDRIEAILLQMEEVAIERDQAIATREELHAQHARGLQEKDALRKQVRELGEKADELQLQVFQCEAQLLAVEGRLRRQQLETLVLSSDLEDGSPRRSQELSLPQDLEDTQLSDKGCLAGGGSPKQPFAALHQEQVLRNPHDAGLSSGEPPEKERRRLKESFENYRRKRALRKMQKGWRQGEEDRENTTGSDNTDTEGS",binding,FLAG-CARD9 T231E (human),binds
